US20070149456A1, “Epithelial sodium channel inhibiting agents and uses therefor” (University of Pittsburgh, priority 2005, published 2007)
Part of at least one peptide drawing is inferred or uncertain, most often the ends. At least one read-out could not be matched to a standard name with certainty.

Molecular target: T1, mouse ENaC (Mus musculus, UniProt Q61180+Q9WU38+Q9WU39, DEL206-231)
T1 construct: expressed in transfected cells; host or cells: Xenopus laevis oocytes (cRNA injection)
T1 sequence (Q61180 with tags, fused parts or gaps DEL206-231): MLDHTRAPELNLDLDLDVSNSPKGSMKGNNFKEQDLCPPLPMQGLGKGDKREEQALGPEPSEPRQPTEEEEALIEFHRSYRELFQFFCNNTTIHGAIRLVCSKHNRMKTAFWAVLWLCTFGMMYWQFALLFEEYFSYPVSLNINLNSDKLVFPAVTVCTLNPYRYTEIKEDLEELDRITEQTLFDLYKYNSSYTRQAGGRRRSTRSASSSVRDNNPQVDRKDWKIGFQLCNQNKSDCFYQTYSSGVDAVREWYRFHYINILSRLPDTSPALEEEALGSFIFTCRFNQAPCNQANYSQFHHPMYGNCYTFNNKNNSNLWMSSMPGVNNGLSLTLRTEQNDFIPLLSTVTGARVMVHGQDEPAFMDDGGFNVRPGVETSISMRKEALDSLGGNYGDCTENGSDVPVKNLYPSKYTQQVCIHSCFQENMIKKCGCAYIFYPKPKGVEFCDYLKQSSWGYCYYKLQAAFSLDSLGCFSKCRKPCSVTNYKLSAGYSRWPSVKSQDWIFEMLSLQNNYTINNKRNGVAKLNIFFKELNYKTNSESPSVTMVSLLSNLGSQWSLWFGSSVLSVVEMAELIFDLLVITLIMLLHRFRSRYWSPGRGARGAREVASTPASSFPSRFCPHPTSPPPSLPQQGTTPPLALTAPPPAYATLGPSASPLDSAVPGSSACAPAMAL
T1 sequence (Q9WU38 1-638): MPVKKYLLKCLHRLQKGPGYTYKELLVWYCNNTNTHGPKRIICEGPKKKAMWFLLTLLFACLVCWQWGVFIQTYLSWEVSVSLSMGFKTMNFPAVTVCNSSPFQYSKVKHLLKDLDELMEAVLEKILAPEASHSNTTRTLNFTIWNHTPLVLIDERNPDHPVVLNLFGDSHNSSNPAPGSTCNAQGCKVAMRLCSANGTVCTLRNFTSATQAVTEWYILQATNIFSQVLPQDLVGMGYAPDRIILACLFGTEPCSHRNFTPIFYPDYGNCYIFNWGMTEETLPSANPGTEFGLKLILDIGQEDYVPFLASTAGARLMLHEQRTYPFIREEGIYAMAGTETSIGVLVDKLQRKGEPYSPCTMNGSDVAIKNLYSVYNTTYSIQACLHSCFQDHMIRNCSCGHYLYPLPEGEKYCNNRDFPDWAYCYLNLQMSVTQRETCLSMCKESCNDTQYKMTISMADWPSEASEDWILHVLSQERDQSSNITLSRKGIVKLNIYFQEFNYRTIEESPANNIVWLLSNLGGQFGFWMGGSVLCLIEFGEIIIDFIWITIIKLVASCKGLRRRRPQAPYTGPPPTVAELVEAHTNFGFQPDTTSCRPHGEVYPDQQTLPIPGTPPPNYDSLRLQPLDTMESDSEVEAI
T1 sequence (Q9WU39 1-655): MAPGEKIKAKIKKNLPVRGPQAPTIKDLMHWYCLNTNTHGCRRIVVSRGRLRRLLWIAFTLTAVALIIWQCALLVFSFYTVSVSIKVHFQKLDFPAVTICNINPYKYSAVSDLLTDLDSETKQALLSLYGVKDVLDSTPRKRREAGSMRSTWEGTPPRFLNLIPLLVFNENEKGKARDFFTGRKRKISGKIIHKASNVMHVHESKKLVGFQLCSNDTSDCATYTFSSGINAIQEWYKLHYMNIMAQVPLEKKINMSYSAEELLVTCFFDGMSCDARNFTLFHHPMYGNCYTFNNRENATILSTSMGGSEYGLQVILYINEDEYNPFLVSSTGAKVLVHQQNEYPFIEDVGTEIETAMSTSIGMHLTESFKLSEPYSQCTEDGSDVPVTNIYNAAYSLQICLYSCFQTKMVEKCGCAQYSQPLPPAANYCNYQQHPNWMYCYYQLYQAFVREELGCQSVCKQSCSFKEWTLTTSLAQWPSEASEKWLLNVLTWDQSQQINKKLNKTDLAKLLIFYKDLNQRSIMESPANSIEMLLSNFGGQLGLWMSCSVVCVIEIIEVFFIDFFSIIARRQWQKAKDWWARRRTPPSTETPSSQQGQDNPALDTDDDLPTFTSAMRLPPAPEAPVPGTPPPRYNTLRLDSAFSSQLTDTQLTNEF
Assay: Two-electrode voltage clamp, amiloride-sensitive whole cell Na+ current in Xenopus oocytes expressing wild-type αβγ ENaC
Assay type: cell-based
Excerpt: Oocyte Expression—cRNAs for α, β, γ mouse ENaC (wild-type and mutant) subunits and mouse prostasin were synthesized with T3 or T7 m-Message mMachineTM (Ambion, Austin, Tex.). Subunits carrying furin cleavage consensus site mutations and the corresponding wild-type subunits have amino-terminal HA and carboxyl-terminal V5 tags (Hughey, R. P., Bruns, J. B., Kinlough, C. L., Harkleroad, K. L., Tong, Q., Carattino, M. D., Johnson, J. P., Stockand, J. D., and Kleyman, T. R. (2004) J. Biol. Chem. 279, 18111-18114 18). Stage V-VI Xenopus laevis oocytes were pretreated with 1.5 mg/ml of type IV collagenase and injected with 0.5-2 ng of cRNA/subunit. Injected oocytes were maintained as previously reported (Carattino, M. D., Hill, W. G., and Kleyman, T. R. (2003), Arachidonic Acid Regulates Surface Expression of Epithelial Sodium Channels, J Biol. Chem. 278, 36202-36213 29).
Two-electrode Voltage Clamp—Two-electrode voltage clamp (TEV) was performed as previously described (Carattino, M. D., Hill, W. G., and Kleyman, T. R. (2003) J Biol. Chem. 278, 36202-36213 29). […]
Data and Statistical Analyses—and mean time of inhibition are expressed as the mean with a 95% confidence interval (CI); otherwise, data were expressed as the mean ±S.E. (n), where “n” equals the number of independent experiments analyzed. […]

Ac-DLRGALPHPLQRLRTPPPPNPARSAR-NH2 [α-26]
effect of peptide on IC50 for amiloride block of ENaC (2.5 μM α-26): not affected

Ac-LPHPLQRL-NH2 (N-terminus and C-terminus assumed)
IC50 (8-residue fragment, read-out: IC50, inhibition of mouse ENaCs expressed in oocytes): ~1 µM
